Data taken from paper PMC12394565.
Results are given in words; binding and its absence hold for the method and conditions named. In cells and extracts the contact can be indirect. Some binding calls cover weakened binding; strength is not graded here.

Amino acid sequences for entries named in this document (tags omitted).
UniProt Q99497: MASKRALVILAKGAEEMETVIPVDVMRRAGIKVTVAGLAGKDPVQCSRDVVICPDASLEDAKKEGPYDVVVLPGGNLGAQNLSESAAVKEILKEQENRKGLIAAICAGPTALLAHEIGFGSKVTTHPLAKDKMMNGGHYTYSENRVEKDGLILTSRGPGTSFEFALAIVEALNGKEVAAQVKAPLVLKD
UniProt Q03135: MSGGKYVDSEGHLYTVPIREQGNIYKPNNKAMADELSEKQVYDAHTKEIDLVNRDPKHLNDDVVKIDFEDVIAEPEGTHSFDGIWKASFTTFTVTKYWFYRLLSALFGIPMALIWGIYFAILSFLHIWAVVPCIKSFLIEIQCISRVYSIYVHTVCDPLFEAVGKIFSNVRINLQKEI

Columns and labels:
[1] = molecular target: Parkinson disease 7 (DJ-1) (human (endogenous in HEK293, HT29, HCT116)) (UniProt Q99497); assay: co-IP; endogenous: HEK-293 and HT29 cell lysates immunoprecipitated with anti-DJ-1 or control IgG antibodies
Flag-tagged Caveolin-1 = Flag-tagged Caveolin-1 (UniProt Q03135); assay: co-IP; exogenous: HCT116 cells with FLAG-tagged CAV1 overexpression plasmid or empty vector; total FLAG-tagged CAV1 immunoprecipitated

| binding [1] | binding (Flag-tagged Caveolin-1) | Substance |
| --- | --- | --- |
| binds |  | Caveolin-1 (endogenous) (from UniProt Q03135 1-178) |
|  | binds | Parkinson disease 7 (DJ-1) (from UniProt Q99497 1-189) |
